# Source: the supplement of paper PMC10849652
# Amino acid sequences for entries named in this document (tags omitted). A change or cut given only in a name is not applied to a line headed by its entry.
# UniProt O75600: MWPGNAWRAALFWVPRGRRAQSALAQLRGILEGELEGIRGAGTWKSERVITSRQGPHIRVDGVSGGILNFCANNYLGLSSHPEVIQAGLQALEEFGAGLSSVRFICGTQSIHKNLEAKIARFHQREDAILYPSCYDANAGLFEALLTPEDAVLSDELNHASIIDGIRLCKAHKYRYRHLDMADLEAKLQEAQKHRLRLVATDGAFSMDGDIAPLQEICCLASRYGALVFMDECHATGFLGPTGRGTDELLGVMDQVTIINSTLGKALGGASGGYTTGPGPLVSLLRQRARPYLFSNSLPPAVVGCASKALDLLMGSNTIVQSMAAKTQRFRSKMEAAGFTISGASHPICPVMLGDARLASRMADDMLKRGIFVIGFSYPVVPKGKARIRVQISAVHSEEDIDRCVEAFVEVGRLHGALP
# UniProt Q9BQS8: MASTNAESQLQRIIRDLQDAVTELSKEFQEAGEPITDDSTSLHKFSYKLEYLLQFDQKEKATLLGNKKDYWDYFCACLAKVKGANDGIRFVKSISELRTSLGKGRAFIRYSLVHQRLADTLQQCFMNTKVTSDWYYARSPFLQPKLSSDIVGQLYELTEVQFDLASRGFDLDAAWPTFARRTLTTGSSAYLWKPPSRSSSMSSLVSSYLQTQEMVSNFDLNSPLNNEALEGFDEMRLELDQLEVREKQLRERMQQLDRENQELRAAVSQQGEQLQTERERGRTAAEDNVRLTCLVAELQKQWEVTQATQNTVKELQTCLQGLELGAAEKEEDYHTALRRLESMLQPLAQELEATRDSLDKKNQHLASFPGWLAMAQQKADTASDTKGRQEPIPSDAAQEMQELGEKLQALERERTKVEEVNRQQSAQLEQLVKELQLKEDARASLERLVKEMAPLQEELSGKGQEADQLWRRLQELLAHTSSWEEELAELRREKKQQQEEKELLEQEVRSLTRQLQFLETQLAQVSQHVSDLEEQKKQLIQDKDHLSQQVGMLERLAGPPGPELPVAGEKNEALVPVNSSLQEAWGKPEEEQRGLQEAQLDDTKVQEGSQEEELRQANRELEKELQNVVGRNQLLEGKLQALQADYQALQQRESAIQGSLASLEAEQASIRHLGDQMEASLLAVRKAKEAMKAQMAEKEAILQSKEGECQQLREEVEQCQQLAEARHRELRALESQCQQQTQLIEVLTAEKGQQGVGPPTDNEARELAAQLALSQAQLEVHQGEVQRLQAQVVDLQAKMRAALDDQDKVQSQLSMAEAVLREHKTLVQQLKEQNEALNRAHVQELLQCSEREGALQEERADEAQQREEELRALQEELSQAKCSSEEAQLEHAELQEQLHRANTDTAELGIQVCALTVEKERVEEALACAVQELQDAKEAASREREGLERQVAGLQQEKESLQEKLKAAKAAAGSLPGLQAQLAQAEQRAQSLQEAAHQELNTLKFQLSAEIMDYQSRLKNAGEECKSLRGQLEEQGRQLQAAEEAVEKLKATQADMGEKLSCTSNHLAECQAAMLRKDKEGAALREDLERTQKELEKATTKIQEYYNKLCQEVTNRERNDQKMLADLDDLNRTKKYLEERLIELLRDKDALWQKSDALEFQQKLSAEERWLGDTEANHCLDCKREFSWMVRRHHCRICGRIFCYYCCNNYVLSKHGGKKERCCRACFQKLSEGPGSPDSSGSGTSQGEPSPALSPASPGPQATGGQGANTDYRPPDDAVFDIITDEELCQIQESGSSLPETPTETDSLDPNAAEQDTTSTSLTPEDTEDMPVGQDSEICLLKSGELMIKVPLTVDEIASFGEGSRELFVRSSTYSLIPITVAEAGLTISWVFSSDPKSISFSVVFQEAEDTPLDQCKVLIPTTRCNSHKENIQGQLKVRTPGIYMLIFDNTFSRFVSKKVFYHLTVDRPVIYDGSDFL
# UniProt Q9UN86: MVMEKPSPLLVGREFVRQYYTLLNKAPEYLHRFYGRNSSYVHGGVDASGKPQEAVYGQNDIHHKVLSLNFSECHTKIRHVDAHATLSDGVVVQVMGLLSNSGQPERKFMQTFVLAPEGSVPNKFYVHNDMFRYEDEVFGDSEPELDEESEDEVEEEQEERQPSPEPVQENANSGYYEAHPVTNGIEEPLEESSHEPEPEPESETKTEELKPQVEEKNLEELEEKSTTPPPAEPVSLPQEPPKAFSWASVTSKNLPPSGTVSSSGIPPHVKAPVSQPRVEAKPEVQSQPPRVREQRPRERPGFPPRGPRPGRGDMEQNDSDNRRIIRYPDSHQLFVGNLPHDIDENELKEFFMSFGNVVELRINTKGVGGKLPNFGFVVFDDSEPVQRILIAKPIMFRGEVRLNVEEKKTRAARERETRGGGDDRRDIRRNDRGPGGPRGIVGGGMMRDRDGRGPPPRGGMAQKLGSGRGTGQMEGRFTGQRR
# UniProt Q86SF2: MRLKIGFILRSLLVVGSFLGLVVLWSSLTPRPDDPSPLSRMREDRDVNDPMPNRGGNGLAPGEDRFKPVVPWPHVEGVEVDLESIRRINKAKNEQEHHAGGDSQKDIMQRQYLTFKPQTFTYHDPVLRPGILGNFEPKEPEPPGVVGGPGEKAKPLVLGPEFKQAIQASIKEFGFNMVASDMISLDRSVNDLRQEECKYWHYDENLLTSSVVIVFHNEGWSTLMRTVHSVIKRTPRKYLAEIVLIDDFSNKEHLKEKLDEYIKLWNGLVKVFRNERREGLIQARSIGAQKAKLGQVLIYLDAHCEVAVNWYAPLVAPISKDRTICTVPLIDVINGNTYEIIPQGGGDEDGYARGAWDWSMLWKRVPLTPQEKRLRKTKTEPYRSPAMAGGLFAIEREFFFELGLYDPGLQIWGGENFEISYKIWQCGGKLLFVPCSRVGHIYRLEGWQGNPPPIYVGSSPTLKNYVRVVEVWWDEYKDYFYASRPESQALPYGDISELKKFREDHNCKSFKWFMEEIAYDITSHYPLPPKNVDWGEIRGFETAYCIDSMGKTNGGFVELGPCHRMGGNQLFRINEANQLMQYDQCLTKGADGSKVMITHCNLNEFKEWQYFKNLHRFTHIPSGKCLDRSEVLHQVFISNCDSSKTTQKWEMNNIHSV
# UniProt Q9NZ52: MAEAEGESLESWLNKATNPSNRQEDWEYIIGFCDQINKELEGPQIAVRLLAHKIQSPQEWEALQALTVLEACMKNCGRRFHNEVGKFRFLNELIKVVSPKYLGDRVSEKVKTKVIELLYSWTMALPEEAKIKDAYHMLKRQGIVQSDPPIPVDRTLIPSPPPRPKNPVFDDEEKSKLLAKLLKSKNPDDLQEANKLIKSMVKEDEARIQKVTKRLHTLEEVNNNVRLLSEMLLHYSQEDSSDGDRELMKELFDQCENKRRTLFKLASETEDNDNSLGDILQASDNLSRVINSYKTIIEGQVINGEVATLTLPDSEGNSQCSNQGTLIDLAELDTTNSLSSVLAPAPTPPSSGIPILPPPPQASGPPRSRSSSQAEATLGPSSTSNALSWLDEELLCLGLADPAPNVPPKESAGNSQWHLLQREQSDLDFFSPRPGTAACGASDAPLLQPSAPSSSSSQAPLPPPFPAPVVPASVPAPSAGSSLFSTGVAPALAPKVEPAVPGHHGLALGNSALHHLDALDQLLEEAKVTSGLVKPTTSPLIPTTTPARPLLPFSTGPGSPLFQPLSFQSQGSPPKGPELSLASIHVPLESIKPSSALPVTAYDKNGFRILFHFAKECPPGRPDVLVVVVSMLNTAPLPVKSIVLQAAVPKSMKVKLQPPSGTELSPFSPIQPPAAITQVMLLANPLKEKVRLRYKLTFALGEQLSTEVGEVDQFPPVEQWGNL
# UniProt P30047: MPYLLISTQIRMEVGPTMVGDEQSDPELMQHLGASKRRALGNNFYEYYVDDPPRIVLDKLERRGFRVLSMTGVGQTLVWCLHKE
# UniProt Q01415: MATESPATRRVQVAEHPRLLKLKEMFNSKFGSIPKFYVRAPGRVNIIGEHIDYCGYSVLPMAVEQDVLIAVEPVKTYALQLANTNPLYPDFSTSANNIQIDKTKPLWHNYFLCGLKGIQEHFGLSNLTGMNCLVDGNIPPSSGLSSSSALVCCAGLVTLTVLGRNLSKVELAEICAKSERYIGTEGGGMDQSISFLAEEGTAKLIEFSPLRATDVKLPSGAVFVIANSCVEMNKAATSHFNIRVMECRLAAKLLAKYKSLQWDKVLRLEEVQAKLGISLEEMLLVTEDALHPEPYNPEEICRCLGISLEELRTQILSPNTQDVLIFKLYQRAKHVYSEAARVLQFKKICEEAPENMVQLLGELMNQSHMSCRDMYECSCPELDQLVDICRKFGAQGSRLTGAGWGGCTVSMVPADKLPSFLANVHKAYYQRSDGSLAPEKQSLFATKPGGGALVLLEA
# UniProt O75223: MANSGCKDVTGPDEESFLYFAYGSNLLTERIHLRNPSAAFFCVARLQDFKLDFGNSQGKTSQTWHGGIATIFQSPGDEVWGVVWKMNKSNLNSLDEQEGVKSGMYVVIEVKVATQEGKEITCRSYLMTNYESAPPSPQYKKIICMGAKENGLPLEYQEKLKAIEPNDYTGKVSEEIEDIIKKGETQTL
# UniProt Q14697: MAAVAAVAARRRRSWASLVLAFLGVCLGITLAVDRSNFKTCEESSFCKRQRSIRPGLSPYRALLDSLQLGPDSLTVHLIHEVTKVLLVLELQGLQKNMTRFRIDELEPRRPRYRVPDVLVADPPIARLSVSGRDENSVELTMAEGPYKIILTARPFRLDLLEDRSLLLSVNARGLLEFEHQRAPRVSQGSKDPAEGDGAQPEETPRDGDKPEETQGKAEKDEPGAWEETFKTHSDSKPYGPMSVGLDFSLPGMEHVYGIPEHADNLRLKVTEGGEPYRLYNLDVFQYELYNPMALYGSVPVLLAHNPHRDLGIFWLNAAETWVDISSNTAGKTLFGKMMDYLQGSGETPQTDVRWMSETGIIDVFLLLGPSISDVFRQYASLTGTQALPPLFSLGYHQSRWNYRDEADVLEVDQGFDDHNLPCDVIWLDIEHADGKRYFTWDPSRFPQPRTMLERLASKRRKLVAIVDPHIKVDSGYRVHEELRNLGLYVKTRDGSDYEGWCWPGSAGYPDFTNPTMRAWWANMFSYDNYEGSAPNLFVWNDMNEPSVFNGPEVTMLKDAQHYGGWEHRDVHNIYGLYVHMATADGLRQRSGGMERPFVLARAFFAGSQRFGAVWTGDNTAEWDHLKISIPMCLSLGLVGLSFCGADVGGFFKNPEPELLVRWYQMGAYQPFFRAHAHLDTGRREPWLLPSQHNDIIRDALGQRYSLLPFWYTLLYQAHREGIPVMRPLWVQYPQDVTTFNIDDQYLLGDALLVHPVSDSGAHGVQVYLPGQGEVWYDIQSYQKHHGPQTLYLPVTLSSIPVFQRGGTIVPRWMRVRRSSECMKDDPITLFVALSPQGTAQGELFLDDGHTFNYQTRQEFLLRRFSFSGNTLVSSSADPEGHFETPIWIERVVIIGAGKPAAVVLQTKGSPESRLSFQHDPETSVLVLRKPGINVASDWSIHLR
# UniProt Q9UJY5: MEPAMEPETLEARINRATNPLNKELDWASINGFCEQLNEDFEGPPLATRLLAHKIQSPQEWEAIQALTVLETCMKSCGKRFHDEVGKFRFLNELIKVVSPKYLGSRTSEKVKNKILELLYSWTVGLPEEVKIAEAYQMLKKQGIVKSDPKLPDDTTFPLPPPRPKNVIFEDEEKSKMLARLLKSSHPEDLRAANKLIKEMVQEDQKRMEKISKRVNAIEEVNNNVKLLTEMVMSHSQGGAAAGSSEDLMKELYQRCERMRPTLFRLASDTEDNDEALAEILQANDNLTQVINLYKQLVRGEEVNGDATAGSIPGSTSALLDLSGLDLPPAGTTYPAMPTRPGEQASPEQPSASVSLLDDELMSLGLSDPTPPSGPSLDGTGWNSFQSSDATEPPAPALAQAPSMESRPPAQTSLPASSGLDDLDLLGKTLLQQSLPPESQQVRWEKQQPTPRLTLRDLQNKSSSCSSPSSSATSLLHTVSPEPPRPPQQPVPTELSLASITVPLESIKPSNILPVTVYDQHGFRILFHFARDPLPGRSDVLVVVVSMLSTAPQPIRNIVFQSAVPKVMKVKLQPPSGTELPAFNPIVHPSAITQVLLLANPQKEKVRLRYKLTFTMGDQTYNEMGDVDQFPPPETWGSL
# UniProt P11413, whole entry, looked up: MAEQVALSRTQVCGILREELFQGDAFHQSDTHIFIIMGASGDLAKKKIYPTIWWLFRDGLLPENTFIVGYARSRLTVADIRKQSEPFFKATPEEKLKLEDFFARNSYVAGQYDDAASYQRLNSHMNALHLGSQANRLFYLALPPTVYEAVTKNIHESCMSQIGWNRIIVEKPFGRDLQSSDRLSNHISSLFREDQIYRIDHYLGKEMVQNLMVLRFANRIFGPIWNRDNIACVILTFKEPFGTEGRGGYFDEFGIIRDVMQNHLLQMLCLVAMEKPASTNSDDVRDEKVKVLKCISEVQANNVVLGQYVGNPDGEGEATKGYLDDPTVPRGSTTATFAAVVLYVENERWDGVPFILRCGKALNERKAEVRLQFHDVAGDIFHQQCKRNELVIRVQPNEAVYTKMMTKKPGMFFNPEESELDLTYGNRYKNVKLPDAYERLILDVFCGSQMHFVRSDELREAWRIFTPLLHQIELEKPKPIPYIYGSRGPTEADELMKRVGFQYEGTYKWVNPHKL
# Some of the results follow.
# Compound: CS(=O)(=O)c1ccc(-c2cnc(N)c(C(=O)Nc3ccccc3)n2)cc1
# Experiment: log2 fold change, soluble protein after heating vs DMSO (PISA); higher = thermal stabilisation; K562 cells, 10 uM, 30 min; active = over 0.2 and 3.5 SD of the protein, either way, in both replicates (recomputed)
# Summary of the method: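 Thermal stability values are relative to control samples and come from duplicates. They are expressed as log2 fold changes. For measurement, K562 cells (2×10^6 cells/mL) received 10 μM compound for 30 min, and aliquots were heated for 3 min over 48°C-58°C, pooled, and extracted at 4°C in PBS with 0.5% NP-40. Soluble protein, the supernatant after 21,000xg for 90 min, was quantified by TMTpro 16plex LC-MS/MS with equalised channel sums.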
row,Target,log2 fold change
1,GCAT isoform 2 (UniProt O75600),inactive: 0.028
2,GAR1 (UniProt Q9NY12),inactive: 0.003
3,GATAD2A isoform 3 (UniProt Q86YP4),inactive: 0
4,FXR1 (UniProt P51114),inactive: 0.032
5,FYCO1 isoform 4 (UniProt Q9BQS8),inactive: -0.063
6,G3BP2 (UniProt Q9UN86),inactive: -0.104
7,GALNT7 (UniProt Q86SF2),inactive: 0.044
8,GAN (UniProt Q9H2C0),inactive: 0.076
9,FRG1 (UniProt Q14331),inactive: 0.021
10,GGA3 (UniProt Q9NZ52),inactive: -0.001
11,GCHFR (UniProt P30047),inactive: 0.079
12,FUS (UniProt P35637),inactive: -0.093
13,GALK2 (UniProt Q01415),inactive: 0.02
14,GAMT (UniProt Q14353),inactive: -0.043
15,FTH1 (UniProt P02794),inactive: -0.04
16,GCLC (UniProt P48506),inactive: 0.047
17,FUBP1 (UniProt Q96AE4),inactive: -0.057

# Part of the list above, reformatted.
row	Target	log2 fold change
9	FRG1 (UniProt Q14331)	inactive: 0.021
10	GGA3 (UniProt Q9NZ52)	inactive: -0.001
11	GCHFR (UniProt P30047)	inactive: 0.079
12	FUS (UniProt P35637)	inactive: -0.093
13	GALK2 (UniProt Q01415)	inactive: 0.02
14	GAMT (UniProt Q14353)	inactive: -0.043

# Additional entries.

row,Target,log2 fold change
1,GAGE2A (UniProt Q6NT46),inactive: 0.015
2,FXR2 (UniProt P51116),inactive: -0.046
3,G3BP1 (UniProt Q13283),inactive: -0.038
4,GEMIN4 (UniProt P57678),inactive: 0.062
5,GGCT (UniProt O75223),inactive: 0.069
6,FTSJ1 (UniProt Q9UET6),inactive: 0.051
7,GALNT12 (UniProt Q8IXK2),inactive: -0.052
8,GALNT5 (UniProt Q7Z7M9),inactive: 0.013
9,GANAB isoform 2 (UniProt Q14697),inactive: 0.021
10,GGA1 isoform 6 (UniProt Q9UJY5),inactive: -0.054
11,GGH (UniProt Q92820),inactive: 0.01
12,GALE (UniProt Q14376),inactive: 0.028
13,GALNS (UniProt P34059),inactive: 0.006
14,GHITM (UniProt Q9H3K2),inactive: -0.006
15,G6PD isoform 2 (UniProt P11413),inactive: 0.031
16,GALM (UniProt Q96C23),inactive: 0.037
17,GFM1 (UniProt Q96RP9),inactive: 0.055
